Data as given in PubChem BioAssay AID1671195 (Yale University, 2021).
In all, the deposit lists about 22,000 reagents; this is a part drawn at random. Over the whole deposit, about 1,510 (6.9%) got an active call. 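Active includes knockdowns raising or lowering LDL uptake; positive z-scores mean more uptake, negative mean less.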 Unmarked entries are inactive.

- Aim: 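Genes whose knockdown alters LDL uptake in liver cancer cells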 (primary screen)
- System: human Huh7 hepatoma cells
- Reagent: siRNA pool against human genes, 18 nM
- Timing: about 2 to 2.5 days of knockdown, then 8 h LDL uptake
- Treatment: DiI-labelled LDL at 30 µg/ml for 8 h, in lipoprotein-deficient serum medium
- Measurement: 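Fluorescent LDL signal imaged in cells, scaled to the plate median, robust z-score for each replicate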
- Scale: robust z-score: higher = more LDL uptake after knockdown
- Hit rule: 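a gene counts as active if at least two replicate z-scores exceed ±2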

After knock-down of FCN2 (ficolin 2), the record shows robust z-score, replicate 1 = -1.8; robust z-score, replicate 2 = -1.86; robust z-score, replicate 3 = -2.04.
DLGAP2 (DLG associated protein 2) gave robust z-score, replicate 1 = 0.419; robust z-score, replicate 2 = 0.936; robust z-score, replicate 3 = 0.0616.
Silencing of SBF1 (SET binding factor 1) gave: robust z-score, replicate 1 = -1.53; robust z-score, replicate 2 = -1.65; robust z-score, replicate 3 = -1.29.
GPC2 (glypican 2) showed robust z-score, replicate 1 = -0.465; robust z-score, replicate 2 = -0.387; robust z-score, replicate 3 = -0.398.
ABI2 (abl interactor 2) scored robust z-score, replicate 1 = -0.0765; robust z-score, replicate 2 = 0.448; robust z-score, replicate 3 = 0.0671.
Against LOC442428 (retired record), the values are robust z-score, replicate 1 = 0.231; robust z-score, replicate 2 = -0.0734; robust z-score, replicate 3 = 0.0939.
After knock-down of DNAJB1 (DnaJ heat shock protein family (Hsp40) member B1) the results were robust z-score, replicate 1 = -0.442; robust z-score, replicate 2 = -0.901; robust z-score, replicate 3 = -0.58.
Against LOC388949 (retired record) the deposit lists robust z-score, replicate 1 = 0.134; robust z-score, replicate 2 = -0.033; robust z-score, replicate 3 = 0.162.
Against DSE (dermatan sulfate epimerase), the values are robust z-score, replicate 1 = -1.54; robust z-score, replicate 2 = -0.282; robust z-score, replicate 3 = -1.39.
Silencing of MRPL49 (mitochondrial ribosomal protein L49) came out at: robust z-score, replicate 1 = 0.653; robust z-score, replicate 2 = 0.416; robust z-score, replicate 3 = -0.17.
ACAD9 (acyl-CoA dehydrogenase family member 9) scored robust z-score, replicate 1 = 1.71; robust z-score, replicate 2 = 1.08; robust z-score, replicate 3 = 1.77.
For RPL31 (ribosomal protein L31), the entry reads robust z-score, replicate 1 = -1.22; robust z-score, replicate 2 = -1.33; robust z-score, replicate 3 = -0.761.
For PIP5K1B (phosphatidylinositol-4-phosphate 5-kinase type 1 beta), the values are robust z-score, replicate 1 = 0.877; robust z-score, replicate 2 = 0.0934; robust z-score, replicate 3 = -0.0916.
CD1D (CD1d molecule) showed robust z-score, replicate 1 = 0.355; robust z-score, replicate 2 = -1.2; robust z-score, replicate 3 = 0.344.
With knock-down of PGM5 (phosphoglucomutase 5), the screen gave robust z-score, replicate 1 = 0.598; robust z-score, replicate 2 = -0.201; robust z-score, replicate 3 = 0.762.
Against SLC22A5, the entry reads robust z-score, replicate 1 = 0.812; robust z-score, replicate 2 = 1.44; robust z-score, replicate 3 = 1.65.
Against DNMT3A (DNA methyltransferase 3 alpha) the deposit lists robust z-score, replicate 1 = 0.643; robust z-score, replicate 2 = 0.0263; robust z-score, replicate 3 = -0.0592.
GPR17 (G protein-coupled receptor 17) gave robust z-score, replicate 1 = -1.07; robust z-score, replicate 2 = -0.896; robust z-score, replicate 3 = -1.04.
After knock-down of SORDL (retired record), the screen gave robust z-score, replicate 1 = -0.972; robust z-score, replicate 2 = -1.56; robust z-score, replicate 3 = -1.52.
LOC401893 (retired record) gave robust z-score, replicate 1 = 0.356; robust z-score, replicate 2 = 0.477; robust z-score, replicate 3 = 1.17.
Depletion of TTC22 (tetratricopeptide repeat domain 22) resulted in: robust z-score, replicate 1 = -1.21; robust z-score, replicate 2 = -1.25; robust z-score, replicate 3 = -1.76.
With knock-down of HRK (harakiri, BCL2 interacting protein) the results were robust z-score, replicate 1 = 0.608; robust z-score, replicate 2 = 0.132; robust z-score, replicate 3 = -0.349.
CAP1 (cyclase associated actin cytoskeleton regulatory protein 1) gave robust z-score, replicate 1 = 0.563; robust z-score, replicate 2 = 0.796; robust z-score, replicate 3 = 0.0387.
For DDT (D-dopachrome tautomerase) the deposit lists robust z-score, replicate 1 = -1.48; robust z-score, replicate 2 = -1.32; robust z-score, replicate 3 = -2.02.
With knock-down of CD2AP (CD2 associated protein), the record shows robust z-score, replicate 1 = -1.95 (active); robust z-score, replicate 2 = -1.94; robust z-score, replicate 3 = -2.05.
With knock-down of CORT (cortistatin) the results were robust z-score, replicate 1 = -0.302; robust z-score, replicate 2 = -1.21; robust z-score, replicate 3 = -1.38.
FGFBP1 (fibroblast growth factor binding protein 1) gave robust z-score, replicate 1 = -0.952; robust z-score, replicate 2 = -1.85; robust z-score, replicate 3 = -0.859.
Silencing of OR10J3 gave: robust z-score, replicate 1 = 0.471; robust z-score, replicate 2 = -0.078; robust z-score, replicate 3 = 0.673.
DNAJC25 (DnaJ heat shock protein family (Hsp40) member C25) gave robust z-score, replicate 1 = -2.28 (active); robust z-score, replicate 2 = -2.2; robust z-score, replicate 3 = -1.94.
With knock-down of CRNDE (colorectal neoplasia differentially expressed), the record shows robust z-score, replicate 1 = -1.14; robust z-score, replicate 2 = -1.12; robust z-score, replicate 3 = -1.05.

Just “robust z-score, replicate 1” (4 entries from above):
DNMT3A (DNA methyltransferase 3 alpha): 0.643
GPR17 (G protein-coupled receptor 17): -1.07
SORDL (retired record): -0.972
LOC401893 (retired record): 0.356
